Data taken from ChEMBL document CHEMBL3988442, “University of Dundee, Small-Polar-MMV Screening Library” (2021).

By UniProt entry, the sequences of proteins in these tests, tags left out. Residues count along the entry.
UniProt A4I591, 1-473: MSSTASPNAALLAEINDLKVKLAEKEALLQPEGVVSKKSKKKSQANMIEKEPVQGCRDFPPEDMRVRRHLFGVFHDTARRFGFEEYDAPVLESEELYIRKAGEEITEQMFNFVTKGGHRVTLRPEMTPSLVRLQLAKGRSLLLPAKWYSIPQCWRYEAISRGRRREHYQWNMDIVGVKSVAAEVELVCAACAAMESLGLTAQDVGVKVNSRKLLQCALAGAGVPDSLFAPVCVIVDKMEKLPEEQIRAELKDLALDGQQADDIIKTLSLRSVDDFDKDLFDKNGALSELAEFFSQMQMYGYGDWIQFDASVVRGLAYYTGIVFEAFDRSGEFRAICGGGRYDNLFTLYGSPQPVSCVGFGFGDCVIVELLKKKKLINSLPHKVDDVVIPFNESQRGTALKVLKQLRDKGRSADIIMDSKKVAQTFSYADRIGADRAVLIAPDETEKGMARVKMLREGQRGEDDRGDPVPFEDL
UniProt I6X8D2, whole entry: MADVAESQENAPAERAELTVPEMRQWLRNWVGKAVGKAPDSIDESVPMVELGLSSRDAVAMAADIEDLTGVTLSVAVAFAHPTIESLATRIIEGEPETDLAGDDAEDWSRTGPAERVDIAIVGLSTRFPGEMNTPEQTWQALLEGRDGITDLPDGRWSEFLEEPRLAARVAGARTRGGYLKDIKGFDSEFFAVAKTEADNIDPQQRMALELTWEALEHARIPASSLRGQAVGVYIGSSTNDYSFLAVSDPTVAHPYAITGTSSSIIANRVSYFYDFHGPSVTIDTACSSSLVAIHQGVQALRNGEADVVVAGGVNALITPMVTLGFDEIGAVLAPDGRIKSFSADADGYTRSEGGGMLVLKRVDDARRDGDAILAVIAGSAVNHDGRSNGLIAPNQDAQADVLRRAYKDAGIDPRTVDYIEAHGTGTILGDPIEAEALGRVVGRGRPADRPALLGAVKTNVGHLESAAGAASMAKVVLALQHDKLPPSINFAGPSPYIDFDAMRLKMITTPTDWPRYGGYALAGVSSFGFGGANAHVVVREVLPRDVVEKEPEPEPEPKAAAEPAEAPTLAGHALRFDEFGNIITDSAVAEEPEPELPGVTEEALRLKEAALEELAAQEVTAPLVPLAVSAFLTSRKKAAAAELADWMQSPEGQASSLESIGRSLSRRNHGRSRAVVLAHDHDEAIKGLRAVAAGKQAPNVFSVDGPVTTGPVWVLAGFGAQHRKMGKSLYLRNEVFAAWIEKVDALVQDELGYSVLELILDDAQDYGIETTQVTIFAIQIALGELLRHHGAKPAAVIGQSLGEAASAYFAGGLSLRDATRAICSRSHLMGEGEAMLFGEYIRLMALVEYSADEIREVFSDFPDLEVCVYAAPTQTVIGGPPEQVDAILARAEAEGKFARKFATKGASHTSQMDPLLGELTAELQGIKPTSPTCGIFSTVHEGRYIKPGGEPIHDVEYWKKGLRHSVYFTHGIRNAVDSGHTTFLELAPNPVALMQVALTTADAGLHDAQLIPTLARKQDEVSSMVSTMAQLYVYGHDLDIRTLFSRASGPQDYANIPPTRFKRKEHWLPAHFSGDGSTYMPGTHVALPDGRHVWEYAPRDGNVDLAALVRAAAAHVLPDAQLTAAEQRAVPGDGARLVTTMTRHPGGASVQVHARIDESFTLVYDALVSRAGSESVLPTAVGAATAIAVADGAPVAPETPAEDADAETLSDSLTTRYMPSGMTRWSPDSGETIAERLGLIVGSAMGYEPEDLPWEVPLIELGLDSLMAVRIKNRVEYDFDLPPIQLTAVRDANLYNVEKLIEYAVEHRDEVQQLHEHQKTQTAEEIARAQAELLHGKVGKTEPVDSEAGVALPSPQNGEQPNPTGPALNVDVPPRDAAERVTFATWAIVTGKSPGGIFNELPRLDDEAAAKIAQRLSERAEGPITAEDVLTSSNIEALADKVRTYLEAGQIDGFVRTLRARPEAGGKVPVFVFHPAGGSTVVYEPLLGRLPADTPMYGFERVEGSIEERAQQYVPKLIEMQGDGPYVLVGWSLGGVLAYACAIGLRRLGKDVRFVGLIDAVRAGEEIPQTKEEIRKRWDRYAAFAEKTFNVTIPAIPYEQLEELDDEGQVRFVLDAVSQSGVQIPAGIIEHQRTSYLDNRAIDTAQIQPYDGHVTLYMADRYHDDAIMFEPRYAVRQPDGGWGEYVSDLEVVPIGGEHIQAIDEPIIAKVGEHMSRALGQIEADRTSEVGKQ
UniProt P9WFT3, whole entry: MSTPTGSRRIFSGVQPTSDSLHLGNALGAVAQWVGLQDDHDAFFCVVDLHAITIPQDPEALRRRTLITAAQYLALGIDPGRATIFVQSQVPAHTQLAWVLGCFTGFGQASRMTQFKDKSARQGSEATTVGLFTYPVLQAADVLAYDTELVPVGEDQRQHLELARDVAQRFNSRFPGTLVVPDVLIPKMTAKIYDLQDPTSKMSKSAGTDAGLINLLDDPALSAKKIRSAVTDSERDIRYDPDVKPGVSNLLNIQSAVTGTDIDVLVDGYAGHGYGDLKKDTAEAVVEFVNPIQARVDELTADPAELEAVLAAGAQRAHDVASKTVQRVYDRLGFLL
UniProt Q4DA54, 1-478: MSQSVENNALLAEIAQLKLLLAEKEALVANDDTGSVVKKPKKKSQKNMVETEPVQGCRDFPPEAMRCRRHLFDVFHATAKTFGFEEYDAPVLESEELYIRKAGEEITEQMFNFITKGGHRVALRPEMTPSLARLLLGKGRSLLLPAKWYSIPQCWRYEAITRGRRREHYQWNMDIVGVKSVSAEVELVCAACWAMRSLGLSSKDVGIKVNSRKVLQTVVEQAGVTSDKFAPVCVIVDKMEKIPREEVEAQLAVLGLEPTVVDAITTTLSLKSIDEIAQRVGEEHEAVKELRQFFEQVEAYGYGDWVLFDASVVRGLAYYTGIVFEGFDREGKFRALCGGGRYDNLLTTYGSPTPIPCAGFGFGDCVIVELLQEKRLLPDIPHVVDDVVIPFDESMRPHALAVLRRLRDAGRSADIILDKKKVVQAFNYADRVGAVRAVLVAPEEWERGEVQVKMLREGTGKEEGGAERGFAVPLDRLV

LiHisRS: 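Enzyme assay of histidyl-tRNA synthetase; the read-out is not stated. Target: Histidine-tRNA ligase, Leishmania infantum (UniProt A4I591). Concentration: 30 µM. Higher reads as stronger inhibition (inferred: compounds with an IC50 in retests scored well above the rest). The assay is labelled LdHisRS but filed under L. infantum. Of about 69,000 compounds tested this way, about 410 (0.6%) reached 50% or more in at least one test.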
Pks13 thioesterase: 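Polyketide synthase Pks13, Mycobacterium tuberculosis (UniProt I6X8D2). Enzyme assay of the thioesterase domain of polyketide synthase 13; the read-out is not stated. Compounds at 30 µM. The record gives no direction; the compounds picked for IC50 retests had high values, so higher reads as stronger inhibition. About 67,000 compounds were tested under these conditions; 0.46% (about 300) showed 50% or more at least once.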
MtTrpRS: 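Enzyme assay of tryptophanyl-tRNA synthetase; the read-out is not stated. Target: Tryptophan-tRNA ligase, Mycobacterium tuberculosis (UniProt P9WFT3). Tested at 10 µM. Direction is not recorded; retested compounds ran higher, which suggests that high means inhibition. Of about 65,000 compounds tested this way, about 64 (0.098%) reached 50% or more in at least one test.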
TcHisRS: 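Enzyme assay of histidyl-tRNA synthetase; the read-out is not stated. Target: Histidine-tRNA ligase, Trypanosoma cruzi CL Brener (UniProt Q4DA54). Compounds at 30 µM. Higher reads as stronger inhibition (inferred: compounds with an IC50 in retests scored well above the rest). Size under these conditions: about 69,000 compounds, about 31 of them at 50% or above in at least one test.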

Each number is a percent effect as filed.
How 0% and 100% were set is not recorded. Most values in the screen are low, and negative values occur.
This is an unselected part of the compounds tested.
A dash means the value is not listed here; it may have been measured.

| Compound | LiHisRS | Pks13 thioesterase | MtTrpRS | TcHisRS |
|---|---|---|---|---|
| `Cc1ccc(C(=O)N2CCCn3nc(CCC(=O)O)cc3C2)cc1Cl` | 12 | -10.27 | 1.377 | 3.518 |
| `CSCC(=O)N1CCc2[nH]nc(-c3ccc4c(c3)OCO4)c2C1` | 9.211 | 4.469 | -6.202 | 5.435 |
| `CS(=O)(=O)N1C[C@@H]2COC[C@]2(C(=O)NCCc2cccs2)C1` | 8 | -16.18 | -6.296 | 5.155 |
| `O=C(NC1CCC1)C1=NOC2(CCN(Cc3ccco3)C2)C1` (stereo not drawn) | -1.818 | -8.86 | -2.616 | 4.132 |
| `CCc1nc(C2CCCN2Cc2nccn2Cc2ccccc2)no1` (stereo not drawn) | 2.667 | -17.79 | 0.7037 | 4.906 |
| `O=C(c1sccc1C1CC1)N1CCN(CC(F)(F)F)CC1` | 4.348 | -17.58 | -3.578 | 0.5634 |
| `Cc1nccc([C@H]2C[C@@H]3CCN(S(=O)(=O)N(C)C)C[C@H]3O2)n1` | 22.64 | -22.46 | -0.1676 | 3.39 |
| `CC(C)NC(=O)N1CCc2nc(C(=O)NCc3ccccc3)sc2CC1` | 10.53 | -29.98 | 0.4359 | 1.657 |
| `COc1cccc(C2SCC(=O)Nc3n[nH]cc32)c1OC(C)C` (stereo not drawn) | 15 | -19.7 | 1.085 | 2.484 |
| `Cc1cccnc1NC(=O)C1CCCN1Cc1ccccc1` (stereo not drawn) | -0.9709 | -16.97 | -7.993 | 3.734 |
| `CCc1ncc2c(n1)CN(CC(=O)Nc1cccnc1)CC2` | 12.07 | -22.73 | 13.77 | 9.04 |
| `COc1ccccc1N1CCN(C(=O)c2ccnc(N(C)C)c2)CC1` | 13.89 | -10.35 | -6.684 | 6.158 |
| `Cc1cccc(C2CCCN(C(=O)C3CCN(CC(N)=O)CC3)C2)c1` (stereo not drawn) | 15 | -32.58 | 2.547 | 5.195 |
| `O=C(c1ccccn1)N1CCC(c2nc(O)cc(-c3ccncc3)n2)C1` (stereo not drawn) | 13.54 | 4.924 | - | 5.319 |
| `Cc1ccc(CN(C)C(=O)CN2CCOC(Cn3cncn3)C2)o1` (stereo not drawn) | 5.618 | -14.09 | -2.439 | 3.759 |
| `Cc1cccc(CN2CC[C@H]3[C@H]2CCN3Cc2cnn(C)c2)n1` | 4.878 | -4.836 | -1.45 | 3.759 |
| `COc1ccc(C[C@H]2CNCC[C@H]2OC)cc1` | 17.31 | -27.71 | -1.599 | 7.767 |
| `CN(C)c1cc(CNC(=O)Nc2ccc(S(C)(=O)=O)nc2)ccn1` | 17.02 | -0.7522 | -0.8166 | 3.053 |
| `CC(C)(C)c1nc(CN(Cc2ccccc2F)C2CCCCC2)no1` | 24.29 | -14.42 | -1.264 | 4.255 |
| `CC(c1ccccn1)N(C)Cc1cccc(C(=O)Nc2nccn2C)c1` (stereo not drawn) | -8.696 | 15.02 | -2.894 | 0 |
| `CCS(=O)(=O)Nc1ccn(Cc2cccc(Cl)c2)n1` | 21.7 | -13.01 | -1.906 | 2.51 |
| `Cc1cccnc1NC(=O)NCc1ccc(N2CCNC(=O)C2)cc1` | 84.93 | 15.62 | -2.478 | 33.59 |
| `COc1ccc2c(c1)nc1n2[C@@H](CNCc2ncccc2C)COC1` | 8.333 | 5.937 | -4.292 | 10.89 |
| `COCCN1CCC2(CC1)CC(NC(=O)C(C)C)c1ccccc1O2` (stereo not drawn) | 17.31 | -26.26 | -5.523 | 5.825 |
| `CSc1ccc(Cl)c(C(=O)N2CCCC(CNS(C)(=O)=O)C2)c1` (stereo not drawn) | 34.38 | -11.57 | 2.421 | -1.901 |
| `Cc1cc(C)cc(CN2C[C@H]3COC[C@H](N4CCN(C)CC4)[C@H]3C2)c1` | 13 | -4.677 | -1.44 | 15.31 |
| `CCc1n[nH]c(C2CN(C(=O)c3cc(C(N)=O)cs3)CCO2)n1` (stereo not drawn) | 6.78 | -3.309 | -4.928 | 2.857 |
| `CC(C)(O)CCc1cccc(C(=O)N2CCC3(CCOCC3)CC2)c1` | 12.68 | -15.13 | 5.242 | 11.6 |
| `CC(C)N1CC2(CCCN(c3ncc(Cl)cc3F)C2)CCC1=O` (stereo not drawn) | 12.5 | -6.528 | 0.7991 | 10.13 |
| `CNC(=O)c1ccc2c(c1)C1(CCN(C(C)C)CC1)C(=O)N2` | 4.167 | -15.62 | -0.2722 | 1.869 |
| `CCCn1c(N2CCCC(C)C2)nc2c(C)nn(C)c2c1=O` (stereo not drawn) | 10.34 | 3.246 | 2.073 | 1.739 |
| `Cc1nsc(N2CCN(CC(=O)NCc3ccc(F)cc3)CC2)n1` | 3.125 | -6.737 | -2.437 | 4.255 |
| `CNc1snc(C)c1C(=O)N1CCCC(n2nc(C)cc2C)C1` (stereo not drawn) | 20.27 | -15.73 | 3.463 | -0.3774 |
| `Cn1cccc1CNC(=O)CCCc1nnc2ccccn12` | 3.883 | -20.42 | 224.3 | -1.639 |
| `CNC(=O)[C@H]1C[C@@H]2CN(C(=O)c3ccc(C)o3)C[C@@H]2N1S(C)(=O)=O` | 6.944 | -10.79 | 1.684 | 9.524 |
| `COc1ccccc1OCC(=O)NS(=O)(=O)c1ccc(C)s1` | 21.88 | -12.89 | 1.101 | 1.141 |
| `CCC(C)NC(=O)c1ccc(-c2ccco2)[nH]c1=O` (stereo not drawn) | 10.53 | 7.061 | -4.262 | 9.497 |
| `CCn1nnnc1-c1cccc(NC(=O)CCc2cnn(C)c2)c1` | 2.74 | -1.638 | -0.8596 | 5.263 |
| `Cn1nc(CNC(=O)CC#N)c2c1CN(CC1CC1)CC2` | 16.24 | -12.12 | -2.468 | 6.952 |
| `CCOC(=O)c1ccc(NC(=O)Cn2cc(I)cn2)cc1` | 10.53 | 19.08 | 2.113 | 6.098 |
| `O[C@H]1COCCN(Cc2cccc3c2OCO3)C1` | 24.32 | -17.82 | -1.754 | 4.478 |
| `CCc1ccccc1OCCN(C)C(=O)CN1CCCC1` | 22.22 | 8.996 | -4.285 | 4.242 |
| `COc1coc(C(=O)Nc2nc(-c3ccccn3)cs2)cc1=O` | 12.09 | -3.913 | 4.207 | 3.96 |
| `CC(C)N(C)Cc1cnc2n1CCN(CCc1ccccc1)C2` | 19.23 | -11.37 | -2.064 | 8.021 |
| `COc1ccc(CNC(=O)CCN2C[C@@H](C)[C@](O)(C3CC3)C2)cc1` | 12.86 | -16.64 | 0.1805 | 2.128 |
| `CNc1cc(C)nc(-c2cc(NC3CCNCC3)nc3[nH]ccc23)n1` | 32.65 | 8.337 | 0.2937 | 13 |
| `COCc1cc(O)nc(C2CCCN(Cc3cc(OC)ccc3F)C2)n1` (stereo not drawn) | 8.333 | -31.79 | -0.2508 | 3.784 |
| `CCC(=O)N(CC)C(c1cccnc1)c1ccc2c(c1)CCO2` (stereo not drawn) | 3.226 | 4.865 | -4.444 | 0 |
| `O=C(O)c1ccc(CC2CCN(Cc3ccc(-c4cc[nH]n4)o3)C2)cc1` (stereo not drawn) | 18.37 | -4.354 | 2.349 | 10 |
| `CS(=O)(=O)N1CCC(NCC2(N3CCOCC3)CCCCC2)CC1` | 14.4 | -4.594 | 3.311 | -2.941 |
| `CC(C)C[C@H](NC(=O)NC1CCS(=O)(=O)C1)C(=O)NCc1cccnc1` (stereo partly drawn) | -2.632 | -19.89 | -3.571 | 1.754 |
| `CCC(=O)N1CCCC1c1csc(Nc2cnccn2)n1` (stereo not drawn) | 15.94 | 30.44 | - | 8.791 |
| `CCN(C(=O)CN1CCC(c2n[nH]c(C3CC3)n2)CC1)C1CC1` | 17.74 | - | 2.91 | 9.195 |

6 of the entries, repeated:

CCOC(=O)c1ccc(NC(=O)Cn2cc(I)cn2)cc1 read LiHisRS: 10.53%; Pks13 thioesterase: 19.08%; MtTrpRS: 2.113%; TcHisRS: 6.098%.
CCC(C)NC(=O)c1ccc(-c2ccco2)[nH]c1=O (stereo not drawn) read LiHisRS: 10.53%; Pks13 thioesterase: 7.061%; MtTrpRS: -4.262%; TcHisRS: 9.497%.
Cc1cc(C)cc(CN2C[C@H]3COC[C@H](N4CCN(C)CC4)[C@H]3C2)c1 read LiHisRS: 13%; Pks13 thioesterase: -4.677%; MtTrpRS: -1.44%; TcHisRS: 15.31%.
CC(C)N1CC2(CCCN(c3ncc(Cl)cc3F)C2)CCC1=O (stereo not drawn) read LiHisRS: 12.5%; Pks13 thioesterase: -6.528%; MtTrpRS: 0.7991%; TcHisRS: 10.13%.
O=C(c1sccc1C1CC1)N1CCN(CC(F)(F)F)CC1 read LiHisRS: 4.348%; Pks13 thioesterase: -17.58%; MtTrpRS: -3.578%; TcHisRS: 0.5634%.
Cn1nc(CNC(=O)CC#N)c2c1CN(CC1CC1)CC2 read LiHisRS: 16.24%; Pks13 thioesterase: -12.12%; MtTrpRS: -2.468%; TcHisRS: 6.952%.